{"source": "patent US11566057B2", "about": "(Merck Sharp & Dohme Corp., priority 2017, dated 2023)", "test": "general procedure: Fmoc solid-phase peptide synthesis; Rink-amide PEG-PS resin (Champion, Biosearch Technologies, 0.28 mmol/g) or Rink-amide PS resin (ChemImpex 0.47 mmol/g); N; HATU/DIEA", "settings": "lipidation step"}
{"substance": "HsQGTFTSDK(N3)SKYLDARAAQDFVQWLLDT-NH2", "values": [{"measurement": "final purity (method not given)", "result": 96, "unit": "%"}, {"measurement": "step yield", "result": 9.06, "unit": "% yield"}]}
